For this assay, the target named is T1, gC1qR/p32 from tumor cell extracts (human, UniProt Q07021 74-282).
T1 construct: mature; From xenograft extracts an additional 75 kD band was also identified as gC1qR/p32; also called gC1q/p32 receptor; p32/p33/gC1qR/HABP1
T1 sequence (looked up): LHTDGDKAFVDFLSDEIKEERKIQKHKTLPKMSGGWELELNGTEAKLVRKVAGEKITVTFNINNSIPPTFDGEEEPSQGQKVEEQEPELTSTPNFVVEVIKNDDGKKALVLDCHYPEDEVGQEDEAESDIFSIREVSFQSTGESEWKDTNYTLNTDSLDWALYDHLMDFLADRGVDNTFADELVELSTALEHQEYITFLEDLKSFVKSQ
The assay can be described thus: pull-down with biotinylated peptide from MDA-MB-435 cell and xenograft extracts; silver stain, mass spectrometry, immunoblot.

Results are given in words; binding and its absence hold for the method and conditions named. In cells and extracts the contact can be indirect. Here binding means that the protein was enriched with, or labelled near, the bait; the list need not be complete.

B1: biotinylated Lyp-1 peptide (peptide)
peptide: CGNKRTRGC
modifications: biotinylated; cyclic peptide with a disulfide bond
With B1, the binding entry is “binds”.
